Results are given in words; binding and its absence hold for the method and conditions named. For some of these results: In cells and extracts the contact can be indirect. Some results given as binding are weak or reduced against the parent protein; the word gives no strength. For some of these results: Tags and fused reporters may be left off the sequences shown.
Key:
[1] = biological target: T1, Myc-tagged BAG5 (human) (UniProt Q9UL15); assay: co-IP; HEK293 cells cotransfected with DJ-1-eGFP and BAG5-Myc; IP with anti-GFP polyclonal antibody or, conversely, anti-Myc antibody (#2272); IP buffer PBS with 1% Triton X-100; Western blot
T1 sequence: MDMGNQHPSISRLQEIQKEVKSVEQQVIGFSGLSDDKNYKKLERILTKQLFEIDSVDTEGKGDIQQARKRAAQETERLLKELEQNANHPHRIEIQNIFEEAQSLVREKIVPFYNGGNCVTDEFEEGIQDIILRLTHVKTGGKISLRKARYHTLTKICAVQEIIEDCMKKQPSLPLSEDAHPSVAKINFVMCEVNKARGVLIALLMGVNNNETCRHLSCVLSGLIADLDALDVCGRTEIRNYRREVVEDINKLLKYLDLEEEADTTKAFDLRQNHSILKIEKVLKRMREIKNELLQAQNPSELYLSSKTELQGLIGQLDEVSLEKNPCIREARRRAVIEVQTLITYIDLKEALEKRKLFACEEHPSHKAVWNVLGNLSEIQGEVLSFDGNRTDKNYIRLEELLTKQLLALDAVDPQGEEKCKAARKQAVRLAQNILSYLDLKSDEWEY

[2] = biological target: GFP-tagged DJ-1 (human) (UniProt Q99497); assay: as above
[3] = biological target: endogenous DJ-1 (human (endogenous in HEK293)) (UniProt Q99497); assay: co-IP; endogenous proteins of HEK293 cells, with or without rotenone; IP with DJ-1 antibody (#5933); blot with anti-DJ-1 (ab11251) and anti-BAG5 (ab56738)
[4] = biological target: T2, DJ-1-flag (human), Q99497; assay: Western blot of dimer and monomer bands; mitochondria isolated from HEK293 cells stably expressing DJ-1-flag alone or with BAG5-Myc; levels of dimer and monomer by Western blot; conditions: remark: other sources report otherwise
T2 chain: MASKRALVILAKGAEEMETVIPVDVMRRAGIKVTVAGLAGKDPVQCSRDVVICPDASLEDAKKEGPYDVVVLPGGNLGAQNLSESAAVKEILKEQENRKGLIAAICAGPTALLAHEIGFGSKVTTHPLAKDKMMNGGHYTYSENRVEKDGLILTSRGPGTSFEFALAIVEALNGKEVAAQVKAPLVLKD

Molecule: GFP-tagged DJ-1 (from UniProt Q99497 1-189)
- binding [1]: binds

B1: Myc-tagged BAG5 (protein, UniProt Q9UL15 1-447)
chain: MDMGNQHPSISRLQEIQKEVKSVEQQVIGFSGLSDDKNYKKLERILTKQLFEIDSVDTEGKGDIQQARKRAAQETERLLKELEQNANHPHRIEIQNIFEEAQSLVREKIVPFYNGGNCVTDEFEEGIQDIILRLTHVKTGGKISLRKARYHTLTKICAVQEIIEDCMKKQPSLPLSEDAHPSVAKINFVMCEVNKARGVLIALLMGVNNNETCRHLSCVLSGLIADLDALDVCGRTEIRNYRREVVEDINKLLKYLDLEEEADTTKAFDLRQNHSILKIEKVLKRMREIKNELLQAQNPSELYLSSKTELQGLIGQLDEVSLEKNPCIREARRRAVIEVQTLITYIDLKEALEKRKLFACEEHPSHKAVWNVLGNLSEIQGEVLSFDGNRTDKNYIRLEELLTKQLLALDAVDPQGEEKCKAARKQAVRLAQNILSYLDLKSDEWEY
- binding [2]: binds

B2: endogenous BAG5 protein (protein, UniProt Q9UL15 1-447)
chain: MDMGNQHPSISRLQEIQKEVKSVEQQVIGFSGLSDDKNYKKLERILTKQLFEIDSVDTEGKGDIQQARKRAAQETERLLKELEQNANHPHRIEIQNIFEEAQSLVREKIVPFYNGGNCVTDEFEEGIQDIILRLTHVKTGGKISLRKARYHTLTKICAVQEIIEDCMKKQPSLPLSEDAHPSVAKINFVMCEVNKARGVLIALLMGVNNNETCRHLSCVLSGLIADLDALDVCGRTEIRNYRREVVEDINKLLKYLDLEEEADTTKAFDLRQNHSILKIEKVLKRMREIKNELLQAQNPSELYLSSKTELQGLIGQLDEVSLEKNPCIREARRRAVIEVQTLITYIDLKEALEKRKLFACEEHPSHKAVWNVLGNLSEIQGEVLSFDGNRTDKNYIRLEELLTKQLLALDAVDPQGEEKCKAARKQAVRLAQNILSYLDLKSDEWEY
- binding [3]: binds

B3: DJ-1-flag, Q99497 1-189 (protein)
chain: MASKRALVILAKGAEEMETVIPVDVMRRAGIKVTVAGLAGKDPVQCSRDVVICPDASLEDAKKEGPYDVVVLPGGNLGAQNLSESAAVKEILKEQENRKGLIAAICAGPTALLAHEIGFGSKVTTHPLAKDKMMNGGHYTYSENRVEKDGLILTSRGPGTSFEFALAIVEALNGKEVAAQVKAPLVLKD
- binding [4]: binds
